Source: publication PMC3765158, “Structure Determination and Biochemical Characterization of a Putative HNH Endonuclease from Geobacter metallireducens GS-15” (PLoS ONE, 2013)
These are yes or no findings as the source states them, for the method shown. Some binding calls cover weakened binding; strength is not graded here.

Biological target: Gmet_0936 protein (putative HNH endonuclease) from Geobacter metallireducens GS-15, with C-terminal LEH6 (Geobacter metallireducens GS-15) (UniProt Q39X46)
Test: crystal structure; SAD, selenomethionyl protein; crystals from 0.2 M magnesium sulfate, 20% PEG 8000, 100 mM Tris-HCl pH 8.5, 4°C; 3 molecules in the asymmetric unit; both purified

B1: Gmet_0936 protein (putative HNH endonuclease) from Geobacter metallireducens GS-15, with C-terminal LEH6 (enzyme, UniProt Q39X46 1-104, looked up)
chain: MNYFIVEVSEQEVKREKEKARELRRSQWWKNRIARGICHYCGEIFPPEELTMDHLVPVVRGGKSTRGNVVPACKECNNRKKYLLPVEWEEYLDSLESEPSDGEG
modifications: selenomethionine in place of methionine (selenomethionine-labeled)
notes: Gmet_0936, putative HNH endonuclease of Geobacter metallireducens GS-15; full-length gene in a pET21 derivative (pGmR87-21.1); molecular mass with tag 13.3 kDa; The SEC with static light scattering used a thawed aliquot of the crystallization stock (the same protein as in the crystal); also called Gme HNHE (H6); Gmet_0936 (H6); source: E. coli BL21 (DE3) pMGK, selenomethionine-labeled, purified …
binding: binds
